Reference: PMC2583055
These are yes or no findings as the source states them, for the method shown. In cells and extracts the contact can be indirect. Some entries that bind do so weakly or less than the wild type. Sequences can lack the tags named with a protein.

T1: vsv-tagged Canis familialis GEF-H1 (guanine nucleotide exchange factor H1) (Canis familialis) (UniProt Q865S3)
T1 sequence: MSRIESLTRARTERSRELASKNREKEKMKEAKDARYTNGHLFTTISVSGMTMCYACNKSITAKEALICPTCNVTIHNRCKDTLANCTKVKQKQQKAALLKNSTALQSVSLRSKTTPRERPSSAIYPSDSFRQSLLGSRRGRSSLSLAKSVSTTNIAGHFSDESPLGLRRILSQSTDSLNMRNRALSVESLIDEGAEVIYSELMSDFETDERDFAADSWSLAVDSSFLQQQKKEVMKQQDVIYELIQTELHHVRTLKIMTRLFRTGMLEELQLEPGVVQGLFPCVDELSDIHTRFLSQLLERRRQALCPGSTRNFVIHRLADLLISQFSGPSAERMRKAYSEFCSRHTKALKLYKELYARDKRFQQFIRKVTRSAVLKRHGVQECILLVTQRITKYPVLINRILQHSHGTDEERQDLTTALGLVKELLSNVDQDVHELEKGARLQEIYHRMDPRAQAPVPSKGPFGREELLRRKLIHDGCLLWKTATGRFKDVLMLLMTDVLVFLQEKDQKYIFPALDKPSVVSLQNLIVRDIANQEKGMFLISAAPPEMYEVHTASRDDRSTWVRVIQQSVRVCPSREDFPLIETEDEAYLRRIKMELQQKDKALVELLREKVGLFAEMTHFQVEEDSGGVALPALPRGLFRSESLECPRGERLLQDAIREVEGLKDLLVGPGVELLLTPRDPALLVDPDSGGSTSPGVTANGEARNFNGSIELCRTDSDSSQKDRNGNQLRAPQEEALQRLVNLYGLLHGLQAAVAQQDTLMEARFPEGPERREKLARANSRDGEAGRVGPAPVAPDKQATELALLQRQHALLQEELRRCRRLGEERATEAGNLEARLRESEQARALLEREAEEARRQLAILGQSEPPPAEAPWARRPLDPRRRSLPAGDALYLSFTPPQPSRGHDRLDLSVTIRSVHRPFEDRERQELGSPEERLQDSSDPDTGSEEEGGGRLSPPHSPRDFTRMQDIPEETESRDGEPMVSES

T2: HA-NOD1 (pCI-HA-CARD4 vector) (UniProt Q9Y239)
T2 sequence: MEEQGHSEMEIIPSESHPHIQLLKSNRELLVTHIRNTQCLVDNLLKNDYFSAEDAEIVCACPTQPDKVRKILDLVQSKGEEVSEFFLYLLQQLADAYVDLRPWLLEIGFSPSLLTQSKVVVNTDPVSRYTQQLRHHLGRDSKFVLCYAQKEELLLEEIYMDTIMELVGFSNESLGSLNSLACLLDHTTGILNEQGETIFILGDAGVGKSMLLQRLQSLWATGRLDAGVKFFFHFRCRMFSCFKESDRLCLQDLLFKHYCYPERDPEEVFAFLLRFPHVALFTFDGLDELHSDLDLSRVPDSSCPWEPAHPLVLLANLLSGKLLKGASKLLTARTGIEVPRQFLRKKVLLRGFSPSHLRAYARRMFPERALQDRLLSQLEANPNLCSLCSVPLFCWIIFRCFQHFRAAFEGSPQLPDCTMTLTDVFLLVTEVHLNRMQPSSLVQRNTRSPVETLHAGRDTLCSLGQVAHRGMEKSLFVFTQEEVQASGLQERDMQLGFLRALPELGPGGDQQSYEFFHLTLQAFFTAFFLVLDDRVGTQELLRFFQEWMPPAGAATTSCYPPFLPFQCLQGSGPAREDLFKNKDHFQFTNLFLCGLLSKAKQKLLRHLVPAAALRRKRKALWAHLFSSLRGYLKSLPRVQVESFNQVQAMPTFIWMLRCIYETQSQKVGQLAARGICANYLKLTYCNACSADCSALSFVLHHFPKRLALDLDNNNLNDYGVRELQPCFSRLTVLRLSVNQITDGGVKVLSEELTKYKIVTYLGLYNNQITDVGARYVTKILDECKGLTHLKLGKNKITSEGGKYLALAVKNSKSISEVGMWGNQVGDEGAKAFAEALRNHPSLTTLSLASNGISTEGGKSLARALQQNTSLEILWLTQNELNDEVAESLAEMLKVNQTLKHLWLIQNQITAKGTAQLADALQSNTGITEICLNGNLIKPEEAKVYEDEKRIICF

B1: HA-NOD1 (pCI-HA-CARD4 vector) (protein, UniProt Q9Y239 1-953)
chain: MEEQGHSEMEIIPSESHPHIQLLKSNRELLVTHIRNTQCLVDNLLKNDYFSAEDAEIVCACPTQPDKVRKILDLVQSKGEEVSEFFLYLLQQLADAYVDLRPWLLEIGFSPSLLTQSKVVVNTDPVSRYTQQLRHHLGRDSKFVLCYAQKEELLLEEIYMDTIMELVGFSNESLGSLNSLACLLDHTTGILNEQGETIFILGDAGVGKSMLLQRLQSLWATGRLDAGVKFFFHFRCRMFSCFKESDRLCLQDLLFKHYCYPERDPEEVFAFLLRFPHVALFTFDGLDELHSDLDLSRVPDSSCPWEPAHPLVLLANLLSGKLLKGASKLLTARTGIEVPRQFLRKKVLLRGFSPSHLRAYARRMFPERALQDRLLSQLEANPNLCSLCSVPLFCWIIFRCFQHFRAAFEGSPQLPDCTMTLTDVFLLVTEVHLNRMQPSSLVQRNTRSPVETLHAGRDTLCSLGQVAHRGMEKSLFVFTQEEVQASGLQERDMQLGFLRALPELGPGGDQQSYEFFHLTLQAFFTAFFLVLDDRVGTQELLRFFQEWMPPAGAATTSCYPPFLPFQCLQGSGPAREDLFKNKDHFQFTNLFLCGLLSKAKQKLLRHLVPAAALRRKRKALWAHLFSSLRGYLKSLPRVQVESFNQVQAMPTFIWMLRCIYETQSQKVGQLAARGICANYLKLTYCNACSADCSALSFVLHHFPKRLALDLDNNNLNDYGVRELQPCFSRLTVLRLSVNQITDGGVKVLSEELTKYKIVTYLGLYNNQITDVGARYVTKILDECKGLTHLKLGKNKITSEGGKYLALAVKNSKSISEVGMWGNQVGDEGAKAFAEALRNHPSLTTLSLASNGISTEGGKSLARALQQNTSLEILWLTQNELNDEVAESLAEMLKVNQTLKHLWLIQNQITAKGTAQLADALQSNTGITEICLNGNLIKPEEAKVYEDEKRIICF
B2: vsv-tagged Canis familialis GEF-H1 (guanine nucleotide exchange factor H1) (protein, UniProt Q865S3 1-986)
chain: MSRIESLTRARTERSRELASKNREKEKMKEAKDARYTNGHLFTTISVSGMTMCYACNKSITAKEALICPTCNVTIHNRCKDTLANCTKVKQKQQKAALLKNSTALQSVSLRSKTTPRERPSSAIYPSDSFRQSLLGSRRGRSSLSLAKSVSTTNIAGHFSDESPLGLRRILSQSTDSLNMRNRALSVESLIDEGAEVIYSELMSDFETDERDFAADSWSLAVDSSFLQQQKKEVMKQQDVIYELIQTELHHVRTLKIMTRLFRTGMLEELQLEPGVVQGLFPCVDELSDIHTRFLSQLLERRRQALCPGSTRNFVIHRLADLLISQFSGPSAERMRKAYSEFCSRHTKALKLYKELYARDKRFQQFIRKVTRSAVLKRHGVQECILLVTQRITKYPVLINRILQHSHGTDEERQDLTTALGLVKELLSNVDQDVHELEKGARLQEIYHRMDPRAQAPVPSKGPFGREELLRRKLIHDGCLLWKTATGRFKDVLMLLMTDVLVFLQEKDQKYIFPALDKPSVVSLQNLIVRDIANQEKGMFLISAAPPEMYEVHTASRDDRSTWVRVIQQSVRVCPSREDFPLIETEDEAYLRRIKMELQQKDKALVELLREKVGLFAEMTHFQVEEDSGGVALPALPRGLFRSESLECPRGERLLQDAIREVEGLKDLLVGPGVELLLTPRDPALLVDPDSGGSTSPGVTANGEARNFNGSIELCRTDSDSSQKDRNGNQLRAPQEEALQRLVNLYGLLHGLQAAVAQQDTLMEARFPEGPERREKLARANSRDGEAGRVGPAPVAPDKQATELALLQRQHALLQEELRRCRRLGEERATEAGNLEARLRESEQARALLEREAEEARRQLAILGQSEPPPAEAPWARRPLDPRRRSLPAGDALYLSFTPPQPSRGHDRLDLSVTIRSVHRPFEDRERQELGSPEERLQDSSDPDTGSEEEGGGRLSPPHSPRDFTRMQDIPEETESRDGEPMVSES

Legend:
[1] = target: T1, vsv-tagged Canis familialis GEF-H1 (guanine nucleotide exchange factor H1) (Canis familialis); assay: co-IP; HEK293 cells transfected (Fugene6), lysed after 48 h in NP-40 buffer (1% NP-40, 20 mM Tris-HCl pH 7.4, 150 mM NaCl); pre-cleared lysates incubated with anti-vsv or anti-HA antibodies at 4°C overnight, protein G plus agarose; Western blot; control antibodies as negative control
[2] = target: T2, HA-NOD1 (pCI-HA-CARD4 vector); assay: as above

Binder | binding [1] | binding [2]
B1 | binds | 
B2 |  | binds
